Reference: article doi:10.1101/2022.09.24.508842
No constants are given. Whether binding was seen depends on the method and setting. For some of these results: Binding seen in cells or lysates may run through a third protein. Some binding calls cover weakened binding; strength is not graded here. For some of these results: Where a sequence is shown, tags or fusion partners need not be part of it.

By UniProt entry, the sequences of proteins in these tests, tags left out.
UniProt Q9UUK2: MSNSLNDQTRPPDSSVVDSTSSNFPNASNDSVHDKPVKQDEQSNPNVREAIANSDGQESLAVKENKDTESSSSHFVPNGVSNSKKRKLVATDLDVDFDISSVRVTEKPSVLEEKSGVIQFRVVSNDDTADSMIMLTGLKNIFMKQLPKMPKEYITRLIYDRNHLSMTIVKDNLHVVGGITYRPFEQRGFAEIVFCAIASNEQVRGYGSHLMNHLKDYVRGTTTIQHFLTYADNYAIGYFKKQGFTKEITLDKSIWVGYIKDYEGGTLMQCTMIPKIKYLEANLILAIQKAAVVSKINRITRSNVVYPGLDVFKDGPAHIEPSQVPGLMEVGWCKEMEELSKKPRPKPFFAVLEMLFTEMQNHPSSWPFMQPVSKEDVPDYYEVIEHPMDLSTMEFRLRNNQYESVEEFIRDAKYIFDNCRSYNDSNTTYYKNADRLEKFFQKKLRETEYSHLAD

Assays:
Gcn5-myc (S. pombe) = Gcn5-myc (S. pombe) (UniProt Q9UUK2); assay: co-IP
[1] = molecular target: T1, Gal4BD-Ada2 (full-length) (S. pombe) (UniProt Q9P7J7); assay: two-hybrid
T1 sequence: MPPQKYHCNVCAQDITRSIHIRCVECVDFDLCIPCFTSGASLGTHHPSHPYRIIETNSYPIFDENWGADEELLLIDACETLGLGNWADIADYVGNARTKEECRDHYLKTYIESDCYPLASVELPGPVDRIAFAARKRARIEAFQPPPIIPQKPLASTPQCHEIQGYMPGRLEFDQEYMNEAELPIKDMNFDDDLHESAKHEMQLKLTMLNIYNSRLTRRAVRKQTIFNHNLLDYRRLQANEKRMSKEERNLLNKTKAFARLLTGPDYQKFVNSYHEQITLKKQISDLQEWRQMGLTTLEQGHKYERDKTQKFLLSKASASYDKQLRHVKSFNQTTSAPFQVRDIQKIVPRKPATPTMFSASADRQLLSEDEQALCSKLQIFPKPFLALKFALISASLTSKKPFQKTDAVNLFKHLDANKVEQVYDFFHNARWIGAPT

[2] = molecular target: Gal4BD-Gcn5 (full-length) (S. pombe) (UniProt Q9UUK2); assay: two-hybrid
[3] = molecular target: T2, Gal4BD-SMC5 CC arm (aa170-225 + 837-910) (S. pombe) (UniProt O13710); assay: two-hybrid
T2 sequence: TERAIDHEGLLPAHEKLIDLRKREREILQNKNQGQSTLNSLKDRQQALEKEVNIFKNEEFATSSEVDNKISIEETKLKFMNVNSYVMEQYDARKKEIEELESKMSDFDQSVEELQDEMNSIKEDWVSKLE

[4] = molecular target: T3, Gal4BD-Nse2 (aa2-178) (S. pombe) (UniProt Q4PIR3); assay: two-hybrid
T3 sequence: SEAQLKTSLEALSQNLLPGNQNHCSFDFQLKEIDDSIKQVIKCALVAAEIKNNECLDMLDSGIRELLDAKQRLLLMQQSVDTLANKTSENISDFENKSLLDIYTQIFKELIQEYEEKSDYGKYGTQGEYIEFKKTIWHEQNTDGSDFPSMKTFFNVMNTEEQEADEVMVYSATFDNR

B1: Nse4-FLAG (protein, UniProt Q6BDR8 1-300)
chain: MSSIDKRDLRKRYRNLINKVQESRLELVDEENNNLYETITTANDLFSSVDAPTEATLDALLLTKTVDLASIKARQLHIGRPKFNIELFTKNIKQFLNYPTSHSNVTRIQEIDTAWSRLGKLASNCEKQPASLNLMVGPLSFRKKERNIQRRERLQKAPNVLTQPTMLNERNITTQENNTTKNVLHISRLLQAHQPVNFLKFITNPQSYPQTVENLFYVSFLFKEGKAALVENESGILMLETRIPPTDDQVVAGEIRNIQLVLDMTMDLYENIIKEYNIKESIIPTRAPVETSTNSNTWYG
For B1, the binding (Gcn5-myc (S. pombe)) was “binds weakly”.

B2: pGADT7-Nse3(aa1-328) (protein, UniProt Q9Y7U4 1-328)
chain: MSQLSFTGKSSSKGRSRLTQEVRPTASQIIADEEASDLDEYEEDLEGSGNEDDFGPSMSRSSRGRKRRKGDPLELQSQFEERNETDAINFQLLVRNVVRYAICSQTSHNTITRKDIVQKAFPEGTSRNLFQSVFEEADRQLQLSFGFRLVAVTQSNRKKDMAVSQLRRPATSNANSSNLHRYWVLRSTLPMELQKDSRLIVDSVLDTAYYGFLMTVIAFIAVSHCSVGHSELQSFLQELLTEEETTPLHLDITRSLSLLVRQGYLDRVKDDTHNQFVYYIGSRAVTEISIEGLKSFVTEFFPDSDIDMDALLTEYRQEYQNQSSSSAA
With B2 the binding [1] was “binds” and the binding [2] was “binds”.

B3: Gal4AD-Nse3 (aa1-190) (domain or fragment, UniProt Q9Y7U4 1-190)
chain: MSQLSFTGKSSSKGRSRLTQEVRPTASQIIADEEASDLDEYEEDLEGSGNEDDFGPSMSRSSRGRKRRKGDPLELQSQFEERNETDAINFQLLVRNVVRYAICSQTSHNTITRKDIVQKAFPEGTSRNLFQSVFEEADRQLQLSFGFRLVAVTQSNRKKDMAVSQLRRPATSNANSSNLHRYWVLRSTLP
In the case of B3, the binding [2] is reported as “binds”.

B4: Gal4AD-Nse3 (aa200-307) (domain or fragment, UniProt Q9Y7U4 200-307)
chain: IVDSVLDTAYYGFLMTVIAFIAVSHCSVGHSELQSFLQELLTEEETTPLHLDITRSLSLLVRQGYLDRVKDDTHNQFVYYIGSRAVTEISIEGLKSFVTEFFPDSDID
With B4 the binding [1] was “binds”.

B5: Gal4AD-Ada2 (full-length) (protein, UniProt Q9P7J7 1-437)
chain: T1 sequence
With B5 the binding [3] was “binds” and the binding [4] was “binds”.
